Experimental data published in the supplement of paper PMC10849652.
The list shows a part of the results.

Protein sequences, listed by entry. Tags and fused reporters are not part of them. Lines headed by an entry give the natural chain unless they say otherwise; changes in a name come on top.
UniProt Q15058: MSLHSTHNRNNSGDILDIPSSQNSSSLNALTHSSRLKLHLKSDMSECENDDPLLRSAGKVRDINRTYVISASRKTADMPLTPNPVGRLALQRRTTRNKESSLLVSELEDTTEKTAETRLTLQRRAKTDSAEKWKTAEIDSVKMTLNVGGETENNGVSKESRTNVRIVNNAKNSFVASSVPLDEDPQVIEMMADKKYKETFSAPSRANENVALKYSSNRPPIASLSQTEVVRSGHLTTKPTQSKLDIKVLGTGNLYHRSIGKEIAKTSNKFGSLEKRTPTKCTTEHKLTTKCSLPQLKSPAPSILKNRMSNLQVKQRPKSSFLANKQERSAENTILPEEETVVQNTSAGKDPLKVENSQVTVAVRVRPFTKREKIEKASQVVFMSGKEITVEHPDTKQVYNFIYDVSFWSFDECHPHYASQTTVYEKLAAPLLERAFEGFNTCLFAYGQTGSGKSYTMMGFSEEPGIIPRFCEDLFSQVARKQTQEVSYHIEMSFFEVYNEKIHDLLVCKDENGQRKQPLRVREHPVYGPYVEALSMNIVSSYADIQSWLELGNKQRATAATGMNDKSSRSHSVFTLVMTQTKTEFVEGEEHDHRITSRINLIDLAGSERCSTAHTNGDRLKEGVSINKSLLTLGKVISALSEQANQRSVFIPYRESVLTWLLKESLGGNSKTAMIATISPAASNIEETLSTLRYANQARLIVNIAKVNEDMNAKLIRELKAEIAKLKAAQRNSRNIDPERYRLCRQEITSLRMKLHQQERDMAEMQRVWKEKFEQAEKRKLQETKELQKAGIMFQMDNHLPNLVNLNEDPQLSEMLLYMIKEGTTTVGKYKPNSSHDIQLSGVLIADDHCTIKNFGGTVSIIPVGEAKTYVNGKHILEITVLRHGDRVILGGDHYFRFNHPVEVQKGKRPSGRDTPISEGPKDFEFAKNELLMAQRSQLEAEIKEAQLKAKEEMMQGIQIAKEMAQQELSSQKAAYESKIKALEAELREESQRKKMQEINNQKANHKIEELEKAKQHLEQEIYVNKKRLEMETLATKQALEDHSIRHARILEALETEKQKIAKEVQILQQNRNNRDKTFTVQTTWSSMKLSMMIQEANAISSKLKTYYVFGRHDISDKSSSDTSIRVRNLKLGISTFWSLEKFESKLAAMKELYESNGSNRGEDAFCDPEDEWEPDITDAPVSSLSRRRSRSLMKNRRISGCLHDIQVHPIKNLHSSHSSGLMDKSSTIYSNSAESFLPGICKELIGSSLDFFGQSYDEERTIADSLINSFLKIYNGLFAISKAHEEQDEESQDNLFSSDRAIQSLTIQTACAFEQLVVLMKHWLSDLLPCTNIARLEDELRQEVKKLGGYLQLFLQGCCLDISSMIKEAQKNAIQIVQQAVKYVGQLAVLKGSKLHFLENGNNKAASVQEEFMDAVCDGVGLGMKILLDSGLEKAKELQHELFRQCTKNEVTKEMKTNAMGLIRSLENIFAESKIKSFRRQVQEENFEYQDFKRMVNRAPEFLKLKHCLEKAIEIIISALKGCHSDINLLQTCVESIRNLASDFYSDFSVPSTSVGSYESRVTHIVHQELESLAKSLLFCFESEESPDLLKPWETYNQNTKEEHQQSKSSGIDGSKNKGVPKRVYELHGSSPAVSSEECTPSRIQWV
UniProt P28838: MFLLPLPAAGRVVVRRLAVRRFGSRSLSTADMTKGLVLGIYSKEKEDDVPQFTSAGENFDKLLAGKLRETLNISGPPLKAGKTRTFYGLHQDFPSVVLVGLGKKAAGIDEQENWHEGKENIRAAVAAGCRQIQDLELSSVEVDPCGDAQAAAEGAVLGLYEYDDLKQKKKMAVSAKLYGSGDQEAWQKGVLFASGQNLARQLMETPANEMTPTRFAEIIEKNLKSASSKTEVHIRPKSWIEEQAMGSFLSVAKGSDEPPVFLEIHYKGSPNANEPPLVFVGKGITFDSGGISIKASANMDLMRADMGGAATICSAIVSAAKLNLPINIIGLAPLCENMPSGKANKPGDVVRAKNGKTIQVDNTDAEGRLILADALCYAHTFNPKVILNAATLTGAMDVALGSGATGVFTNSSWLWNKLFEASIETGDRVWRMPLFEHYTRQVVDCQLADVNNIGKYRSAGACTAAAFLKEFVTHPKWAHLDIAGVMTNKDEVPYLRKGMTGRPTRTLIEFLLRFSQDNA
UniProt Q14807: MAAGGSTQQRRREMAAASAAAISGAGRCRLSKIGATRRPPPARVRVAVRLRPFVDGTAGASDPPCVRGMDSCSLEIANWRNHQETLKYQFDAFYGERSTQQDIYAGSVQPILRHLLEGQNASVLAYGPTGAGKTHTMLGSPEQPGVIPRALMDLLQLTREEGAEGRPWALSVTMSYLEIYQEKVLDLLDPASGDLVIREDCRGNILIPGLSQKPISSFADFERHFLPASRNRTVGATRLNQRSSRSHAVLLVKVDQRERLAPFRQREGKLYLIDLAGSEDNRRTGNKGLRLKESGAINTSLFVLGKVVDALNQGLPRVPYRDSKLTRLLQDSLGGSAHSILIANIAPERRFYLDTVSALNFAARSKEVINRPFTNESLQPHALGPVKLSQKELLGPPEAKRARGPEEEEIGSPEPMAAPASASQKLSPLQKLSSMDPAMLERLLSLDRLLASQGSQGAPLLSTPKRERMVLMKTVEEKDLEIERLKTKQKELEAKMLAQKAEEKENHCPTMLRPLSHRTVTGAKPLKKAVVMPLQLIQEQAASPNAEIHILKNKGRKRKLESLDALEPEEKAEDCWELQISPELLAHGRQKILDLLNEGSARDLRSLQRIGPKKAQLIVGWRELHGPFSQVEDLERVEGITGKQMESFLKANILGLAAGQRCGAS
UniProt Q92615, whole entry, looked up: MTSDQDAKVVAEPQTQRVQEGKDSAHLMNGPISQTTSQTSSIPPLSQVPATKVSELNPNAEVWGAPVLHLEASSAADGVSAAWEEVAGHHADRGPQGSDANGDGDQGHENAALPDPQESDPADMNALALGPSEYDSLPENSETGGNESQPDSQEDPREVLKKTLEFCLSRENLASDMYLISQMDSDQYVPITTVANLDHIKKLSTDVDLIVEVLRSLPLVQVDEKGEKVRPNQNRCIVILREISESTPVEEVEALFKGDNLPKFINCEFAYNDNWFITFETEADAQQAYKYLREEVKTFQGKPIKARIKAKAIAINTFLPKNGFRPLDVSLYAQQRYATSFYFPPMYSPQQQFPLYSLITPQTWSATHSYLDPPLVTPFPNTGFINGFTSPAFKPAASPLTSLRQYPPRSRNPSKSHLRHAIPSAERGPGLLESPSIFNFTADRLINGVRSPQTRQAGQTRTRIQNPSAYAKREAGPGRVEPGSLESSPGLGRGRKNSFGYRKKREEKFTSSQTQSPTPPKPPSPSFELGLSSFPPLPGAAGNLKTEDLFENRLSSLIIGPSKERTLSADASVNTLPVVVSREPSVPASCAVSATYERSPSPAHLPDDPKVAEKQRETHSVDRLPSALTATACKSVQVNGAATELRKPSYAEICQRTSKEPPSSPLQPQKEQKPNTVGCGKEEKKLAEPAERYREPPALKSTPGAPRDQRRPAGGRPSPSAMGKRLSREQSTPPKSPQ
UniProt Q9P206: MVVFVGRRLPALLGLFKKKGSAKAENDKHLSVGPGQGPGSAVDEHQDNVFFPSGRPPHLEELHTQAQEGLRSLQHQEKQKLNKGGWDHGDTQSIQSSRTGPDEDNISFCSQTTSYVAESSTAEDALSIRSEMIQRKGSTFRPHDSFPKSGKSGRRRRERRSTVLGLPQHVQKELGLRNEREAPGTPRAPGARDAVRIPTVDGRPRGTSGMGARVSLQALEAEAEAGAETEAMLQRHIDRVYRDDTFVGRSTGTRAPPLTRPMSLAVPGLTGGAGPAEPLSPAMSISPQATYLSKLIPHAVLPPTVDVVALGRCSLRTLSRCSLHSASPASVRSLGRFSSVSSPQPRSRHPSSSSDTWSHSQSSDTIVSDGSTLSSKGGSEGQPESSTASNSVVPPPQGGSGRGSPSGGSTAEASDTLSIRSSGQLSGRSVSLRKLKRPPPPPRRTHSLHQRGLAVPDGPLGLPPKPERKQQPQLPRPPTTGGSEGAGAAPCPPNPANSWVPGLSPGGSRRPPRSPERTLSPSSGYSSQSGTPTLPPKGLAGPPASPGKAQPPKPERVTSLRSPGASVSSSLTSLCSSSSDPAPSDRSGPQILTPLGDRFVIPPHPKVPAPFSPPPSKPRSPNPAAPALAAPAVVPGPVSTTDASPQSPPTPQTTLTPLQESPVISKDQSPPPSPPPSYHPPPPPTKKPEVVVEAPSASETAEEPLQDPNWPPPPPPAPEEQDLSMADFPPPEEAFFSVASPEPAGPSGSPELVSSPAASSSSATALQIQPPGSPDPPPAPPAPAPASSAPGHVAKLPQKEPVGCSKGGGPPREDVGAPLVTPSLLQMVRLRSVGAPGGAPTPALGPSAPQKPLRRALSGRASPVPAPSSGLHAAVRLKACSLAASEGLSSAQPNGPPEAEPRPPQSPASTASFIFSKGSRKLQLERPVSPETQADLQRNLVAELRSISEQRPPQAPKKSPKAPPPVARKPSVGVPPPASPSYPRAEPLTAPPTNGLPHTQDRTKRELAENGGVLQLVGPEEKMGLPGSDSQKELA
UniProt O95239: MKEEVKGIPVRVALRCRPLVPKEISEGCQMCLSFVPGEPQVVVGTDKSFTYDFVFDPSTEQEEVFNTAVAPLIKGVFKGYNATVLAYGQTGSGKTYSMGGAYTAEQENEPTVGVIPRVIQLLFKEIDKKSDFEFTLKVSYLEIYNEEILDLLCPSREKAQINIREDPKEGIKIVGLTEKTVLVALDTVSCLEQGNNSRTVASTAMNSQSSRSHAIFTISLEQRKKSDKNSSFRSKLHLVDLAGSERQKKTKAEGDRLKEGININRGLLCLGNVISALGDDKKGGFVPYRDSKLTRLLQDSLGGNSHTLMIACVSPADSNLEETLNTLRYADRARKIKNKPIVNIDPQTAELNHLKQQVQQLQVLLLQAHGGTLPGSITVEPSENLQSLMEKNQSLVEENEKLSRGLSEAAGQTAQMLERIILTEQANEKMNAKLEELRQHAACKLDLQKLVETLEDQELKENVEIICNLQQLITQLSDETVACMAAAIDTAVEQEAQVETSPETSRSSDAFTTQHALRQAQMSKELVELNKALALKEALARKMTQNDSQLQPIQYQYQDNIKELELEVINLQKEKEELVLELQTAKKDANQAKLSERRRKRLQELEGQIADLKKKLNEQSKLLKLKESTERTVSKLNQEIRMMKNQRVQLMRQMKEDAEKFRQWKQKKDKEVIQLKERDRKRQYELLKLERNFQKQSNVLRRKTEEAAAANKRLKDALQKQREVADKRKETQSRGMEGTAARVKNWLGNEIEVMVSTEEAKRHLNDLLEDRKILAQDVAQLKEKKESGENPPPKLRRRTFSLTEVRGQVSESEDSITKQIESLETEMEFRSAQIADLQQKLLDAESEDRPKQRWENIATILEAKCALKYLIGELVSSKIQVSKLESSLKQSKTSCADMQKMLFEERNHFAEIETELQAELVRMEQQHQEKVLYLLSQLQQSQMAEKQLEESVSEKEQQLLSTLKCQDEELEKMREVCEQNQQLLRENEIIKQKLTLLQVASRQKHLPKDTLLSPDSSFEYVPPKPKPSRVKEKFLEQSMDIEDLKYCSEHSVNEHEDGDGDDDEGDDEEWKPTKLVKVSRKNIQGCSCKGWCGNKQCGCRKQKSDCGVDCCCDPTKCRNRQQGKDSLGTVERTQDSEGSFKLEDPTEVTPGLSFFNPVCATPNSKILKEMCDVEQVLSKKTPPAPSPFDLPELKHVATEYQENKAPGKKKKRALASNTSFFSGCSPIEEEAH
UniProt Q16719: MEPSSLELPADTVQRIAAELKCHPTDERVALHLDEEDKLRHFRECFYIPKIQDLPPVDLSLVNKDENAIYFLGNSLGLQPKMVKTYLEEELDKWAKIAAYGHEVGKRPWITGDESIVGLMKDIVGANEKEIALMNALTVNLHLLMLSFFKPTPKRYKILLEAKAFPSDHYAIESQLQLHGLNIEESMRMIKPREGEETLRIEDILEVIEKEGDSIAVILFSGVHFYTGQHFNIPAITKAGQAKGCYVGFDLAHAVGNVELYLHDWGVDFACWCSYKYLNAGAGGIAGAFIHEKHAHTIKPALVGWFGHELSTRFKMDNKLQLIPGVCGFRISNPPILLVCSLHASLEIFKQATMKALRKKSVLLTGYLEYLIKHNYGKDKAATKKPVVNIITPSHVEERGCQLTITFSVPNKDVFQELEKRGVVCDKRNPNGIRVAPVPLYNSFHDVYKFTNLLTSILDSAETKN
UniProt Q96AT1: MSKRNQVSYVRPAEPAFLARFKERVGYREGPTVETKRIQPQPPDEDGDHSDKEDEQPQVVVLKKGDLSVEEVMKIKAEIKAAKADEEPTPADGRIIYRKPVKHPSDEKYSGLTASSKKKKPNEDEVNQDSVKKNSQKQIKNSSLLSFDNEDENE

What was measured:
Experiment in all cases: log2 fold change, soluble protein after heating vs DMSO (PISA); higher = thermal stabilisation; K562 lysate, 10 uM; active = over 0.2 and 3.5 SD of the protein, either way, in both replicates (recomputed)
ibrutinib = compound: C=CC(=O)N1CCC[C@@H](n2nc(-c3ccc(Oc4ccccc4)cc3)c3c(N)ncnc32)C1 [ibrutinib]
How it was run: (§1)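 Log-two fold change in thermal stability relative to solvent controls is reported from duplicates. For each sample, crude K562 extract from dounce-homogenised pellets in PBS pH 7.4 with 1 mM MgCl2, at 1 mg/mL protein, was treated with 10 μM compound for 30 min. Aliquots heated for 3 min across 48°C-58°C were pooled, brought to 0.5% NP-40 at 4°C and cleared at 21,000xg for 90 min. The supernatant was quantified by TMTpro 16plex LC-MS/MS with channel sums equalised.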

[1] = compound: CC(=O)c1cnc2ccc(-c3cc(Cl)c(O)c(Cl)c3)nc2c1N[C@H]1CC[C@H](CN(C)C)CC1
How it was run: as §1

ralimetinib = compound: CC(C)(C)Cn1c(N)nc2ccc(-c3[nH]c(C(C)(C)C)nc3-c3ccc(F)cc3)nc21 [ralimetinib]
How it was run: as §1

[2] = compound: CC(C)(O)CC(=O)NCCn1ccc2ncnc(Nc3ccc(Oc4cccc(C(F)(F)F)c4)c(Cl)c3)c21
How it was run: as §1

[3] = compound: CC(C)C1=C2N=C(C=C(N2N=C1)NCC3=CC=CC=C3)NCCCCCCN
How it was run: as §1

[4] = compound: CC1=C(C(CC(=O)N1)C2=CC=C(C=C2)C(F)(F)F)C(=O)NC3=C(C=C4C(=C3)C=NN4)F
How it was run: as §1

[5] = compound: CC1=C(C2=C(C=C1)C(=O)C3=CC=CC=C3N2CCCN)C
How it was run: as §1

[6] = compound: CC1=C(C=C(C=C1)NC(=O)C2=CC(=CC=C2)C(C)(C)C#N)NC3=CC4=C(C=C3)N=CN(C4=O)C
How it was run: as §1

[7] = compound: CC1=C(C=C(C=C1)NC(=O)C2=CC(=CC=C2)N(C)C)NC(=O)C3=CC=C(C=C3)O
How it was run: as §1

[8] = compound: CC1=CC=C(C=C1)SC2=C3C=C(SC3=CN=C2)C(=O)N
How it was run: as §1

vemurafenib = compound: CCCS(=O)(=O)Nc1ccc(F)c(C(=O)c2c[nH]c3ncc(-c4ccc(Cl)cc4)cc23)c1F [vemurafenib]
How it was run: as §1

[9] = compound: CCCS(=O)(=O)Nc1ccc(F)c(C(=O)c2c[nH]c3ncc(Cl)cc23)c1F
How it was run: as §1

barasertib = compound: CCN(CCCOc1ccc2c(Nc3cc(CC(=O)Nc4cccc(F)c4)[nH]n3)ncnc2c1)CCOP(=O)(O)O [barasertib]
How it was run: as §1

[10] = compound: CC[C@@H]1C(=O)N(C)c2cnc(Nc3ccc(C(=O)NC4CCN(C)CC4)cc3OC)nc2N1C1CCCC1
How it was run: as §1

volasertib = compound: CC[C@@H]1C(=O)N(C)c2cnc(Nc3ccc(C(=O)N[C@H]4CC[C@H](N5CCN(CC6CC6)CC5)CC4)cc3OC)nc2N1C(C)C [volasertib]
How it was run: as §1

[11] = compound: CCn1c(C(=O)N(C2CC2)C2CC2)cc2c3c(ncn3C)c(Nc3cc(C)n(C)n3)nc21
How it was run: as §1

[12] = compound: CCn1cc(-c2ccnc3[nH]c(-c4cccc(CN(C)C)c4)cc23)c(-c2ccc(NC(=O)N(C)C)cc2)n1
How it was run: as §1

[13] = compound: CN1CCC(CNc2ccc3ncc(-c4cccc(OC(F)(F)F)c4)n3n2)CC1
How it was run: as §1

saracatinib = compound: CN1CCN(CCOc2cc(OC3CCOCC3)c3c(Nc4c(Cl)ccc5c4OCO5)ncnc3c2)CC1 [saracatinib]
How it was run: as §1

sotrastaurin = compound: CN1CCN(c2nc(C3=C(c4c[nH]c5ccccc45)C(=O)NC3=O)c3ccccc3n2)CC1 [sotrastaurin]
How it was run: as §1

Target	log2 fold change (ibrutinib)	log2 fold change [1]	log2 fold change (ralimetinib)	log2 fold change [2]	log2 fold change [3]	log2 fold change [4]	log2 fold change [5]	log2 fold change [6]	log2 fold change [7]	log2 fold change [8]	log2 fold change (vemurafenib)	log2 fold change [9]	log2 fold change (barasertib)	log2 fold change [10]	log2 fold change (volasertib)	log2 fold change [11]	log2 fold change [12]	log2 fold change [13]	log2 fold change (saracatinib)	log2 fold change (sotrastaurin)
KIF14 (UniProt Q15058)	inactive: 0.086	inactive: 0.024	inactive: 0.002	inactive: 0.003	inactive: 0.017	inactive: 0.002	inactive: -0.011	inactive: 0.007	inactive: 0.041	inactive: -0.012	inactive: 0.027	inactive: 0.021	inactive: 0.143	inactive: 0.052	inactive: -0.071	inactive: -0.005	inactive: -0.046	inactive: 0.05	inactive: 0.016	inactive: 0.01
KDSR (UniProt Q06136)	inactive: 0.005	inactive: 0.02	inactive: 0.002	inactive: -0.088	inactive: -0.041	inactive: -0.036	inactive: 0.01	inactive: 0.032	inactive: 0.031	inactive: -0.051	inactive: 0.041	inactive: -0.012	inactive: 0.036	inactive: 0.017	inactive: 0.013	inactive: -0.034	inactive: -0.143	inactive: 0.156	inactive: 0.036	inactive: -0.018
LAP3 (UniProt P28838)	inactive: 0.043	inactive: -0.03	inactive: -0.05	inactive: -0.103	inactive: 0	inactive: -0.024	inactive: -0.042	inactive: 0.117	inactive: -0.009	inactive: -0.018	inactive: 0.107	inactive: 0.024	inactive: -0.002	inactive: 0.195	inactive: 0.054	inactive: -0.095	active: -0.495	active: 0.36	inactive: 0.082	inactive: 0.042
KLHDC4 (UniProt Q8TBB5)	inactive: 0.053	inactive: -0.003	inactive: 0.062	inactive: -0.002	inactive: 0.018	inactive: 0.016	inactive: 0.144	inactive: 0	inactive: 0.013	inactive: 0.028	inactive: 0.069	inactive: -0.007	inactive: -0.055	inactive: -0.01	inactive: 0.014	inactive: -0.007	inactive: 0	inactive: -0.039	inactive: 0.017	inactive: 0.016
KIF22 (UniProt Q14807)	inactive: 0.012	inactive: -0.02	inactive: 0.006	inactive: -0.27	inactive: 0.028	inactive: 0.016	inactive: -0.142	inactive: 0.143	inactive: -0.027	inactive: -0.117	inactive: -0.043	inactive: -0.049	inactive: 0.009	inactive: 0.088	inactive: 0.075	inactive: -0.189	inactive: -0.157	inactive: 0.308	inactive: 0.036	inactive: -0.084
KIN (UniProt O60870)	inactive: -0.051	inactive: 0.032	inactive: 0.056	inactive: 0.047	inactive: 0.006	inactive: -0.058	inactive: 0.043	inactive: -0.02	inactive: 0.023	inactive: -0.015	inactive: 0.017	inactive: -0.009	inactive: -0.02	inactive: -0.007	inactive: 0.003	inactive: -0.007	inactive: -0.035	inactive: -0.022	inactive: -0.053	inactive: 0.021
LARP4B (UniProt Q92615)	inactive: 0	inactive: 0.005	inactive: 0.055	inactive: 0.069	inactive: -0.02	inactive: -0.006	inactive: 0.03	inactive: -0.094	inactive: 0.037	inactive: 0.014	inactive: -0.014	inactive: 0.011	inactive: -0.033	inactive: -0.029	inactive: -0.042	inactive: 0.08	inactive: -0.116	inactive: 0.038	inactive: 0.011	inactive: -0.019
KTN1 (UniProt Q86UP2)	inactive: 0.017	inactive: -0.004	inactive: -0.009	inactive: -0.055	inactive: -0.001	inactive: 0.033	inactive: -0.002	inactive: 0.013	inactive: 0.005	inactive: -0.016	inactive: -0.012	inactive: 0.012	inactive: 0.015	inactive: 0.023	inactive: 0	inactive: -0.02	inactive: 0	inactive: -0.016	inactive: 0.009	inactive: -0.007
KIFBP (UniProt Q96EK5)	inactive: 0.019	inactive: -0.009	inactive: 0.048	inactive: 0.037	inactive: -0.019	inactive: -0.014	inactive: 0.022	inactive: -0.012	inactive: 0.015	inactive: 0.034	inactive: 0.051	inactive: 0.004	inactive: 0.035	inactive: -0.081	inactive: -0.084	inactive: 0.043	inactive: 0	inactive: -0.039	inactive: 0.048	inactive: 0.045
KNOP1 (UniProt Q1ED39)	inactive: -0.079	inactive: -0.096	inactive: -0.096	inactive: -0.133	inactive: -0.031	inactive: 0.052	inactive: -0.114	inactive: 0.155	inactive: -0.033	inactive: -0.118	inactive: -0.285	inactive: 0.026	inactive: -0.014	inactive: 0.315	inactive: 0.056	inactive: -0.161	inactive: 0.016	inactive: 0.012	inactive: -0.029	inactive: -0.063
KRR1 (UniProt Q13601)	inactive: 0.037	inactive: 0.009	inactive: 0.035	inactive: 0.042	inactive: -0.04	inactive: 0.041	inactive: -0.032	inactive: 0.144	inactive: 0.093	inactive: -0.027	inactive: 0.057	inactive: 0.01	inactive: 0.026	inactive: 0.065	inactive: -0.015	inactive: 0.023	inactive: -0.006	inactive: -0.026	inactive: 0.003	inactive: -0.021
KIAA1522 isoform 2 (UniProt Q9P206)	inactive: 0.013	inactive: -0.015	inactive: 0.014	inactive: 0.01	inactive: 0.005	inactive: 0.026	inactive: -0.026	inactive: 0.037	inactive: 0.026	inactive: -0.007	inactive: -0.002	inactive: -0.028	inactive: 0.008	inactive: -0.001	inactive: 0.008	inactive: 0.039	inactive: 0.024	inactive: 0.007	inactive: 0.03	inactive: -0.023
KIF2C (UniProt Q99661)	inactive: 0.004	inactive: 0.014	inactive: 0.048	inactive: 0.025	inactive: -0.014	inactive: -0.005	inactive: -0.004	inactive: 0.004	inactive: 0.039	inactive: 0.016	inactive: 0.01	inactive: 0.004	inactive: 0.008	inactive: -0.058	inactive: -0.023	inactive: 0.016	inactive: 0.006	inactive: -0.015	inactive: -0.015	inactive: 0.02
KIF4A (UniProt O95239)	inactive: 0.011	inactive: 0.007	inactive: -0.014	inactive: 0.003	inactive: -0.002	inactive: -0.013	inactive: -0.027	inactive: 0.004	inactive: 0.056	inactive: 0.048	inactive: 0.005	inactive: 0.035	inactive: -0.02	inactive: -0.021	inactive: -0.055	inactive: 0.003	inactive: 0.013	inactive: -0.07	inactive: 0.007	inactive: -0.003
KYNU (UniProt Q16719)	inactive: 0.046	inactive: 0.041	inactive: 0.061	inactive: -0.055	inactive: 0.008	inactive: 0.048	inactive: 0.127	inactive: -0.029	inactive: -0.025	inactive: -0.025	inactive: 0.025	inactive: 0.037	inactive: -0.014	inactive: 0.014	inactive: 0.003	inactive: -0.105	inactive: 0.016	inactive: 0.038	inactive: 0.136	inactive: -0.009
KIAA1143 (UniProt Q96AT1)	inactive: 0	inactive: -0.025	inactive: -0.012	inactive: -0.047	inactive: 0.017	inactive: -0.02	inactive: -0.013	inactive: 0.04	inactive: 0.008	inactive: -0.066	inactive: -0.02	inactive: -0.012	inactive: -0.101	inactive: 0.066	inactive: 0.033	inactive: -0.033	inactive: -0.008	inactive: 0.089	inactive: 0.036	inactive: 0.028

Quoted from the listing:
log2 fold change (saracatinib), LAP3 (UniProt P28838) reads inactive: 0.082
log2 fold change [3], KIAA1143 (UniProt Q96AT1) reads inactive: 0.017
